# Measured values as given in the supplement of paper PMC8728848.
# This is one part of the list.
# What was measured:
# Test in all cases: glycan array binding signal (z-score within array); higher = stronger binding
# Details in all cases: glycan notation: IUPAC condensed, linker removed
# Neu5Ac(a2-3)Gal = target: Neu5Ac(a2-3)Gal
# Outline: (§1)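 The binding signal is a Z-score computed within each array and averaged over linkers. Arrays of the same protein sequence at different concentrations or buffers were also averaged together. Data originate from 3228 arrays in the Consortium for Functional Glycomics database, kept only where the protein sequence was available.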
# [1] = target: Neu5Ac(a2-3)Gal(b1-3)GalNAc
# Outline: as §1
# [2] = target: Neu5Ac(a2-3)Gal(b1-3)GalNAc(b1-3)Gal(a1-4)Gal(b1-4)Glc
# Outline: as §1
# [3] = target: Neu5Ac(a2-3)Gal(b1-3)GalNAc(b1-4)[Neu5Ac(a2-3)]Gal(b1-4)Glc
# Outline: as §1
# [4] = target: Neu5Ac(a2-3)Gal(b1-3)GalNAc(b1-4)[Neu5Ac(a2-8)Neu5Ac(a2-3)]Gal(b1-4)Glc
# Outline: as §1
# [5] = target: Neu5Ac(a2-3)Gal(b1-3)GalNAc6S
# Outline: as §1
# [6] = target: Neu5Ac(a2-3)Gal(b1-3)GlcNAc
# Outline: as §1
# [7] = target: Neu5Ac(a2-3)Gal(b1-3)GlcNAc(b1-2)Man
# Outline: as §1
# [8] = target: Neu5Ac(a2-3)Gal(b1-3)GlcNAc(b1-2)Man(a1-3)[GlcNAc(b1-4)][Neu5Ac(a2-3)Gal(b1-3)GlcNAc(b1-2)Man(a1-6)]Man(b1-4)GlcNAc(b1-4)GlcNAc
# Outline: as §1
# [9] = target: Neu5Ac(a2-3)Gal(b1-3)GlcNAc(b1-2)Man(a1-3)[Neu5Ac(a2-3)Gal(b1-3)GlcNAc(b1-2)Man(a1-6)]Man(b1-4)GlcNAc(b1-4)GlcNAc
# Outline: as §1
# [10] = target: Neu5Ac(a2-3)Gal(b1-3)GlcNAc(b1-3)Gal(b1-3)GlcNAc
# Outline: as §1
# [11] = target: Neu5Ac(a2-3)Gal(b1-3)GlcNAc(b1-3)Gal(b1-4)GlcNAc
# Outline: as §1
# [12] = target: Neu5Ac(a2-3)Gal(b1-3)GlcNAc(b1-3)GalNAc
# Outline: as §1
# [13] = target: Neu5Ac(a2-3)Gal(b1-3)GlcNAc(b1-4)Gal(b1-4)Glc
# Outline: as §1
# [14] = target: Neu5Ac(a2-3)Gal(b1-3)GlcNAc(b1-6)GalNAc
# Outline: as §1
# [15] = target: Neu5Ac(a2-3)Gal(b1-3)GlcNAc6S
# Outline: as §1
# [16] = target: Neu5Ac(a2-3)Gal(b1-3)[Fuc(a1-4)]GlcNAc
# Outline: as §1
# [17] = target: Neu5Ac(a2-3)Gal(b1-3)[Fuc(a1-4)]GlcNAc(b1-3)Gal(b1-3)[Fuc(a1-4)]GlcNAc
# Outline: as §1
# [18] = target: Neu5Ac(a2-3)Gal(b1-3)[Fuc(a1-4)]GlcNAc(b1-3)Gal(b1-4)[Fuc(a1-3)]GlcNAc
# Outline: as §1
# [19] = target: Neu5Ac(a2-3)Gal(b1-3)[GlcNAc(b1-6)]GalNAc
# Outline: as §1
# [20] = target: Neu5Ac(a2-3)Gal(b1-3)[Neu5Ac(a2-6)]GalNAc
# Outline: as §1
# [21] = target: Neu5Ac(a2-3)Gal(b1-3)[Neu5Ac(a2-6)]GlcNAc(b1-3)[Fuc(a1-3)[Gal(b1-4)]GlcNAc(b1-6)]Gal(b1-4)Glc
# Outline: as §1
# [22] = target: Neu5Ac(a2-3)Gal(b1-3)]Neu5Ac(a2-3)Gal(b1-4)]GlcNAc
# Outline: as §1
# Neu5Ac(a2-3)Gal(b1-4)Glc = target: Neu5Ac(a2-3)Gal(b1-4)Glc
# Outline: as §1
# [23] = target: Neu5Ac(a2-3)Gal(b1-4)GlcNAc
# Outline: as §1
# [24] = target: Neu5Ac(a2-3)Gal(b1-4)GlcNAc(b1-2)Man
# Outline: as §1
# [25] = target: Neu5Ac(a2-3)Gal(b1-4)GlcNAc(b1-2)Man(a1-3)[GlcNAc(b1-4)][Neu5Ac(a2-3)Gal(b1-4)GlcNAc(b1-2)Man(a1-6)]Man(b1-4)GlcNAc(b1-4)GlcNAc
# Outline: as §1
# [26] = target: Neu5Ac(a2-3)Gal(b1-4)GlcNAc(b1-2)Man(a1-3)[Neu5Ac(a2-3)Gal(b1-4)GlcNAc(b1-2)Man(a1-6)]Man(b1-4)GlcNAc(b1-4)GlcNAc
# Outline: as §1
# [27] = target: Neu5Ac(a2-3)Gal(b1-4)GlcNAc(b1-2)Man(a1-3)[Neu5Ac(a2-3)Gal(b1-4)GlcNAc(b1-2)Man(a1-6)]Man(b1-4)GlcNAc(b1-4)[Fuc(a1-6)]GlcNAc
# Outline: as §1
# [28] = target: Neu5Ac(a2-3)Gal(b1-4)GlcNAc(b1-2)Man(a1-3)[Neu5Ac(a2-6)Gal(b1-4)GlcNAc(b1-2)Man(a1-6)]Man(b1-4)GlcNAc(b1-4)GlcNAc
# Outline: as §1
# [29] = target: Neu5Ac(a2-3)Gal(b1-4)GlcNAc(b1-2)[Neu5Ac(a2-3)Gal(b1-4)GlcNAc(b1-4)]Man(a1-3)[GlcNAc(b1-4)][Neu5Ac(a2-3)Gal(b1-4)GlcNAc(b1-2)[Neu5Ac(a2-3)Gal(b1-4)GlcNAc(b1-6)]Man(a1-6)]Man(b1-4)GlcNAc(b1-4)GlcNAc
# Outline: as §1
# [30] = target: Neu5Ac(a2-3)Gal(b1-4)GlcNAc(b1-2)[Neu5Ac(a2-3)Gal(b1-4)GlcNAc(b1-4)]Man(a1-3)[GlcNAc(b1-4)][Neu5Ac(a2-3)Gal(b1-4)GlcNAc(b1-4)Man(a1-6)]Man(b1-4)GlcNAc(b1-4)GlcNAc
# Outline: as §1
# [31] = target: Neu5Ac(a2-3)Gal(b1-4)GlcNAc(b1-2)[Neu5Ac(a2-3)Gal(b1-4)GlcNAc(b1-6)]Man(a1-6)[Neu5Ac(a2-3)Gal(b1-4)GlcNAc(b1-2)Man(a1-3)]Man(b1-4)GlcNAc(b1-4)GlcNAc
# Outline: as §1
# [32] = target: Neu5Ac(a2-3)Gal(b1-4)GlcNAc(b1-2)[Neu5Ac(a2-3)Gal(b1-4)GlcNAc(b1-6)]Man(a1-6)[Neu5Ac(a2-3)Gal(b1-4)GlcNAc(b1-2)Man(a1-3)][GlcNAc(b1-4)]Man(b1-4)GlcNAc(b1-4)GlcNAc
# Outline: as §1
# [33] = target: Neu5Ac(a2-3)Gal(b1-4)GlcNAc(b1-3)Gal
# Outline: as §1
# [34] = target: Neu5Ac(a2-3)Gal(b1-4)GlcNAc(b1-3)Gal(b1-3)GlcNAc
# Outline: as §1
# [35] = target: Neu5Ac(a2-3)Gal(b1-4)GlcNAc(b1-3)Gal(b1-4)GlcNAc
# Outline: as §1
binder,measurement,setting,value
"AT1G80310(18) (Arabidopsis thaliana), Q0WP36 (protein) METTTTPLLPGDRSRCGWLRRRLRLKNPLSSELSGAVGDLGTFIPIVLTLTLVSNLDLSTTLIFTGFYNIATGLLFDIPMPVQPMKSIAAVAVSESPHLTPSQIAAAGASTAATLLLLGATGAMSFLYNIIPLPVVRGVQLSQGLQFAFTAIKYVRFNYDTATLKPSSSPRIWLGLDGLILALAALLFIILSTGSGNDREAEDGDLAETSSNESQSRRRRLRLLSSIPSALIVFALGLVLCFIRDPSIFKDLKFGPSKFHILRISWDDWKIGFLRAAIPQIPLSVLNSVIAVCKLSNDLFDKELSATTVSISVGVMNLIGCWFGAMPVCHGAGGLAGQYRFGARSGLSVIFLGIGKLIVGLVFGNSFVRILSQFPIGILGVLLLFAGIELAMASKDMNSKEDSFIMLVCAAVSMTGSSAALGFGCGVVLYLLLKLRTLDCSSVTLFSRSSDESQVDSEAAPRDV",glycan array binding signal (z-score),Neu5Ac(a2-3)Gal,-0.584
same,glycan array binding signal (z-score),[1],0.654
same,glycan array binding signal (z-score),[2],0.8
same,glycan array binding signal (z-score),[3],-0.383
same,glycan array binding signal (z-score),[4],4.16
same,glycan array binding signal (z-score),[5],-0.477
same,glycan array binding signal (z-score),[6],-0.775
same,glycan array binding signal (z-score),[7],-0.911
same,glycan array binding signal (z-score),[8],0.81
same,glycan array binding signal (z-score),[9],-0.7
same,glycan array binding signal (z-score),[10],-0.233
same,glycan array binding signal (z-score),[11],-1.01
same,glycan array binding signal (z-score),[12],0.422
same,glycan array binding signal (z-score),[13],-0.825
same,glycan array binding signal (z-score),[14],-0.907
same,glycan array binding signal (z-score),[15],-0.894
same,glycan array binding signal (z-score),[16],-0.423
same,glycan array binding signal (z-score),[17],1.52
same,glycan array binding signal (z-score),[18],-0.599
same,glycan array binding signal (z-score),[19],-1.06
same,glycan array binding signal (z-score),[20],-0.455
same,glycan array binding signal (z-score),[21],-0.787
same,glycan array binding signal (z-score),[22],-0.819
same,glycan array binding signal (z-score),Neu5Ac(a2-3)Gal(b1-4)Glc,-0.298
same,glycan array binding signal (z-score),[23],-0.649
same,glycan array binding signal (z-score),[24],0.054
same,glycan array binding signal (z-score),[25],-1.21
same,glycan array binding signal (z-score),[26],-0.801
same,glycan array binding signal (z-score),[27],-0.895
same,glycan array binding signal (z-score),[28],-0.856
same,glycan array binding signal (z-score),[29],1.21
same,glycan array binding signal (z-score),[30],0.431
same,glycan array binding signal (z-score),[31],0.367
same,glycan array binding signal (z-score),[32],-0.012
same,glycan array binding signal (z-score),[33],-0.893
same,glycan array binding signal (z-score),[34],-0.162
same,glycan array binding signal (z-score),[35],-0.967

# For reference, part of the list above.
binder,measurement,setting,value
"AT1G80310(18) (Arabidopsis thaliana), Q0WP36 (protein) METTTTPLLPGDRSRCGWLRRRLRLKNPLSSELSGAVGDLGTFIPIVLTLTLVSNLDLSTTLIFTGFYNIATGLLFDIPMPVQPMKSIAAVAVSESPHLTPSQIAAAGASTAATLLLLGATGAMSFLYNIIPLPVVRGVQLSQGLQFAFTAIKYVRFNYDTATLKPSSSPRIWLGLDGLILALAALLFIILSTGSGNDREAEDGDLAETSSNESQSRRRRLRLLSSIPSALIVFALGLVLCFIRDPSIFKDLKFGPSKFHILRISWDDWKIGFLRAAIPQIPLSVLNSVIAVCKLSNDLFDKELSATTVSISVGVMNLIGCWFGAMPVCHGAGGLAGQYRFGARSGLSVIFLGIGKLIVGLVFGNSFVRILSQFPIGILGVLLLFAGIELAMASKDMNSKEDSFIMLVCAAVSMTGSSAALGFGCGVVLYLLLKLRTLDCSSVTLFSRSSDESQVDSEAAPRDV",glycan array binding signal (z-score),[28],-0.856
same,glycan array binding signal (z-score),[29],1.21
same,glycan array binding signal (z-score),[30],0.431
